No constants are given. Whether binding was seen depends on the method and setting. In cells and extracts the contact can be indirect. A yes stands for co-enrichment or nearness to the bait. Other partners may have been found. Sequences can lack the tags named with a protein.
Tests used:
[1] = biological target: T1, Arabidopsis thaliana SUVR5 protein (Arabidopsis thaliana) (UniProt O64827); assay: FLAG affinity purification of LDL1-3xFLAG from plant inflorescence tissue, mass spectrometry of co-purified proteins
T1 sequence: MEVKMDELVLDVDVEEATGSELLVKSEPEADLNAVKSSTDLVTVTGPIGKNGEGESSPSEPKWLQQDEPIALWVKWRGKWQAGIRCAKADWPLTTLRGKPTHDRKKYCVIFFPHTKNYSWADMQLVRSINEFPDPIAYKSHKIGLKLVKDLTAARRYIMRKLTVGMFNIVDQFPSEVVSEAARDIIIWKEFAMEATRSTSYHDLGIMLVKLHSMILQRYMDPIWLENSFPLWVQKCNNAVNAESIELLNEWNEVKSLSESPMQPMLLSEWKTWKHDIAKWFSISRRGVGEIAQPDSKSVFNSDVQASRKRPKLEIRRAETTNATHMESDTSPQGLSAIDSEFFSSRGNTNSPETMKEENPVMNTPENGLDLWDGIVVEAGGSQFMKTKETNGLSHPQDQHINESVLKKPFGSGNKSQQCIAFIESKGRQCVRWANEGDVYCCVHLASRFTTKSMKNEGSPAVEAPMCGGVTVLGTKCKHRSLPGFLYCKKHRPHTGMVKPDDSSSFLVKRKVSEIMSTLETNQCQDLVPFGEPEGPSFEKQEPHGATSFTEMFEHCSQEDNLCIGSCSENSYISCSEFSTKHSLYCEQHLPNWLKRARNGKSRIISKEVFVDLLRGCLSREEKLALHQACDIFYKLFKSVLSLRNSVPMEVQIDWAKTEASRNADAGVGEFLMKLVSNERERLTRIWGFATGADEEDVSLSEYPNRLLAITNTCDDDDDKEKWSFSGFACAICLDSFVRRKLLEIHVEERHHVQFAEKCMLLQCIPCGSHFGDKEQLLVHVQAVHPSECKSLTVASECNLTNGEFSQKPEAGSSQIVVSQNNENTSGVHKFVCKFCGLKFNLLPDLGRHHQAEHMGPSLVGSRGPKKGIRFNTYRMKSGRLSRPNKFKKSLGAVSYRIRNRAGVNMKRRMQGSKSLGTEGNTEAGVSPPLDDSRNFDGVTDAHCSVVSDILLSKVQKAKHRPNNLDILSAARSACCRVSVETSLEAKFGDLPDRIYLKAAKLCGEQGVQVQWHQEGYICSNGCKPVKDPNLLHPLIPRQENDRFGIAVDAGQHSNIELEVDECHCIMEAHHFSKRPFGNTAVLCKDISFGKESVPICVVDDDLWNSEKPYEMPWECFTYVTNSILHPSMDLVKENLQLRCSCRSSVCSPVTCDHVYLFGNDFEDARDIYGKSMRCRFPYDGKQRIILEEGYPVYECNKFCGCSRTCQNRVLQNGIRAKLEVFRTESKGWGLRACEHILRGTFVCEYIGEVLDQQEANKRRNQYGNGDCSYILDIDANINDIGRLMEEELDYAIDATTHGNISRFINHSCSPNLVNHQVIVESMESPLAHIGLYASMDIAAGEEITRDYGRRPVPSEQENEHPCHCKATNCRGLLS

[2] = biological target: T1, Arabidopsis thaliana SUVR5 protein (Arabidopsis thaliana); assay: mass spectrometry analysis of LDL1 affinity purifications (FIG. 15B)

binding [1]: binds | binding [2]: binds
B1: LDL1-3× FLAG (enzyme, Arabidopsis, UniProt Q8VXV7 1-844, looked up, not shown: small tags and cut ends)
chain: MSTETKETRPETKPEDLGTHTTVDVPGEEPLGELIADDVNEVVSDASATETDFSLSPSQSEQNIEEDGQNSLDDQSPLTELQPLPLPPPLPVEARISESLGEEESSDLVTEQQSQNPNAAEPGPRARKRRRRKRFFTEINANPAFSRNRRTSVGKEVDSEALIAMSVGFPVYSLTEEEIEANVVSIIGGKDQANYIVVRNHIIALWRSNVSNWLTRDHALESIRAEHKTLVDTAYNFLLEHGYINFGLAPVIKEAKLRSFDGVEPPNVVVVGAGLAGLVAARQLLSMGFRVLVLEGRDRPGGRVKTRKMKGGDGVEAMADVGGSVLTGINGNPLGVLARQLGLPLHKVRDICPLYLPNGELADASVDSKIEASFNKLLDRVCKLRQSMIEENKSVDVPLGEALETFRLVYGVAEDQQERMLLDWHLANLEYANATLLGNLSMAYWDQDDPYEMGGDHCFIPGGNEIFVHALAENLPIFYGSTVESIRYGSNGVLVYTGNKEFHCDMALCTVPLGVLKKGSIEFYPELPHKKKEAIQRLGFGLLNKVAMLFPCNFWGEEIDTFGRLTEDPSTRGEFFLFYSYSSVSGGPLLVALVAGDAAERFETLSPTDSVKRVLQILRGIYHPKGIVVPDPVQALCSRWGQDKFSYGSYSYVAVGSSGDDYDILAESVGDGRVFFAGEATNRQYPATMHGAFLSGMREAANILRVARRRASSSALNPNQICIDKEEEVDEEEDRCLDQLFETPDLTFGNFSVLFTPNSDEPESMSLLRVRIQMEKPESGLWLYGLVTRKQAIELGEMDGDELRNEYLREKLGLVPVERKSLSQEGESMISSLKAARLNRQIFD

Source: US20150150156A1, “METHODS AND COMPOSITIONS FOR REDUCING GENE EXPRESSION IN PLANTS” (The Regents of the University of California, published 2015)
